According to PubChem BioAssay AID1671190 (National Center for Advancing Translational Sciences (NCATS), 2021):
Hit rate of the full screen: of about 580,000 compounds, about 6,100 (1.1%) were called active. Inconclusive means that the source gave no clear call. Such entries were picked first, then a sample of the others. The call rests on the fitted dose curve; in most records, active means well fitted inhibition curve with a large enough effect; inconclusive means small, poorly fitted or top-dose-only effect, or another doubt; inactive means no such curve, though single readings can be large or run the other way. Potencies of inconclusive entries are doubtful fits and often do not repeat.

Chains of the proteins cited; added tags and fusions are not shown. Lines headed by an entry give the natural chain unless they say otherwise; changes in a name come on top.
UniProt P18054: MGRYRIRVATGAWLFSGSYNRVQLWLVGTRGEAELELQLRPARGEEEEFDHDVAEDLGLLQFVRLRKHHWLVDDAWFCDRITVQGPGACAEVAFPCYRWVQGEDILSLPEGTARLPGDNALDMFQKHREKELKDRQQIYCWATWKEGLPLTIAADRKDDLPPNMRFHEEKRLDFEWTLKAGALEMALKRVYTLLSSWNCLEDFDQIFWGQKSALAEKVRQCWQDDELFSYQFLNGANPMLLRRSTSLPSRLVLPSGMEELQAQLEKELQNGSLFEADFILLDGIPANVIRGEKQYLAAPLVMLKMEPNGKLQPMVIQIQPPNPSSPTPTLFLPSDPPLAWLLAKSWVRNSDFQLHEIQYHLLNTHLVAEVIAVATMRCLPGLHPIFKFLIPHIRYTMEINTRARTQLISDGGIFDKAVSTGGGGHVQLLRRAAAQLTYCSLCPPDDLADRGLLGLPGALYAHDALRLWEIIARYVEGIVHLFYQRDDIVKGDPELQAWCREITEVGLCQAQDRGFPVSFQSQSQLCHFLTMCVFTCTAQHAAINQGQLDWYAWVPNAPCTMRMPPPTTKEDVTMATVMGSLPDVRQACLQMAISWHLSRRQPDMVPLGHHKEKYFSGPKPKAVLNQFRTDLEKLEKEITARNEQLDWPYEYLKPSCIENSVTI

target: Polyunsaturated fatty acid lipoxygenase ALOX12 (Homo sapiens) (UniProt P18054); experiment: Primary qHTS assay for inhibitors of human arachidonate 12S-lipoxygenase (ALOX12): Round 2; details: purified 12hLO, xylenol orange hydroperoxide absorbance; activity change, negative = inhibition: at 108 µM (top of the series) unless noted
Method in brief: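 Purified human 12hLO (150 nM final) in 25 mM Hepes, 0.01% Triton X-100, pH 7.0 was preincubated 15 min at room temperature with compound. Then 40 uM arachidonic acid was added, 30 min. Hydroperoxide was read by Fe-XO absorbance ratio 573/405 nm.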
On the % scale 0 is the no-effect control and ±100 the full control effect; potency means the concentration at half of the fitted maximal effect.

Compound	Potency	activity change, negative = inhibition
COc1ccccc1CCn1cnc(-c2ccccc2)c1-c1cn(C)nc1C	inactive	–
CCN(CC)C(=O)CN1CCN(Cc2ccc3c(c2)OCO3)CC1	inconclusive: 0.708 µM [inhibitor, full curve, poor fit]	–
CN1OC[C@@H]2CN3C(=Nc4cc(C(F)(F)F)cc(C(F)(F)F)c4)Sc4ccccc4[C@@H]3C[C@@H]21	inconclusive: 79.4 µM [inhibitor, single point]	–
O=C(NC(=S)NCC1CCCO1)c1ccccc1F (stereo not drawn)	inactive	–
COc1ccc(NC(=O)CN2CCc3ccccc3C2)cc1S(=O)(=O)N1CCOCC1	inactive	–
Cc1nc2c(C(=O)NCc3ccc4c(c3)OCO4)c[nH]n2c(=O)c1Cc1ccccc1F	inconclusive: 39.8 µM [inhibitor, partial curve, poor fit]	–
CN(C(=O)Cn1c2c(c(=O)n1Cc1ccccc1)CCN(Cc1ccccc1)C2)c1ccccc1	inconclusive: 44.7 µM [inhibitor, full curve, poor fit]	–
CC(=O)[C@@H]1[C@@H]2C(=O)N(Cc3ccccc3)C(=O)[C@@H]2C2c3ccccc3C=CN21 (stereo partly drawn)	inactive	–
Cc1ccc(C2(C)NC(=O)N(Cc3coc(-c4cccs4)n3)C2=O)cc1 (stereo not drawn)	inactive	–
COc1ccc(CCNC(=O)Cn2c(-c3cccs3)cc3cc(F)ccc32)cc1OC	inactive	–
Cc1cc(S(=O)(=O)NCc2ccccc2)ccc1OCC(=O)Nc1cccc([N+](=O)[O-])c1	inactive	–
O=[N+]([O-])c1cccc2nc(/C=C/c3ccc(C(F)(F)F)cc3)ccc12	inconclusive: 22.4 µM [inhibitor, single point]	–
CC(=O)Nc1ccc(S(=O)(=O)NCCSc2ccccn2)cc1	inconclusive: 6.31 µM [inhibitor, partial curve, poor fit]	–
CCCCN(C)c1c(C)nc2ccc(C(=O)N(CC)CCN(C)C)cn12	inconclusive: 3.98 µM [inhibitor, full curve, poor fit]	–
O=C(CCNS(=O)(=O)c1ccc(Br)cc1)NC1CCN(Cc2ccccc2)CC1	inconclusive: 44.7 µM [inhibitor, partial curve, poor fit]	–
COc1cccc(-c2nc(-c3cc4cc(OC)ccc4[nH]c3=O)no2)c1	inconclusive: 15.8 µM [inhibitor, full curve]	–
COc1ccc(C(C)(O)c2nc(-c3ccc(Cl)cc3)cs2)cc1 (stereo not drawn)	inconclusive: 44.7 µM [inhibitor, partial curve, poor fit]	–
CCSc1nc(N2CCCCC2)c2c3c(sc2n1)COC(C)(CC)C3 (stereo not drawn)	inconclusive: 39.8 µM [inhibitor, partial curve, poor fit]	–
COc1ccc2oc(C(=O)OCC(=O)Nc3cc(S(=O)(=O)N4CCOCC4)ccc3C)c(C)c2c1	inconclusive: 50.1 µM [inhibitor, partial curve, poor fit]	–
COc1ccc(NC(=O)c2oc3ccccc3c2NC(=O)c2cc(OC)c(OC)c(OC)c2)cc1	inactive	–
COc1ccc(NC(=O)c2c(C)oc3ccc(O)c(CN4CCCC(C)C4)c23)cc1 (stereo not drawn)	–	inconclusive: -50.5% [inhibitor]
COCCNC(=O)CNC(=O)c1nn(-c2ccc(OC)cc2OC)c(=O)c2ccccc12	inactive	–
Cc1nc2sccn2c1-c1csc(Nc2ccccc2Cl)n1	inconclusive: 100 µM [inhibitor, single point]	–

Compound	Potency	activity change, negative = inhibition
CCOc1ccc(N/C=C/C(=O)c2ccc(-c3ccccc3)cc2)cc1	inconclusive: 12.6 µM [inhibitor, partial curve, poor fit]	–
CN(C)S(=O)(=O)c1ccc(-c2nc(C#N)c(N3CCN(c4ccccc4)CC3)o2)cc1	inactive	–
Cc1ccc(-c2nc(NCCN(C)C)c3ccccc3n2)cc1	inconclusive: 5.62 µM [inhibitor, full curve, poor fit]	–
O=C(O)Cn1nc(-c2ccc(Cl)cc2)ccc1=O	inconclusive: 39.8 µM [inhibitor, partial curve, poor fit]	–
CCCCCOc1ccc(C(=O)O)cc1	inconclusive: 25.1 µM [inhibitor, partial curve, poor fit]	–
COc1cccc(-c2nnc3n2N=C(c2cc(OC)ccc2OC)CS3)c1	inactive	–
c1cncc(-c2nnc(SCc3cccc4ccccc34)o2)c1	inconclusive: 100 µM [inhibitor, partial curve, poor fit]	–
Cc1cc(C)cc(OCC(=O)NCC2(N3CCOCC3)CCCCC2)c1	inconclusive: 44.7 µM [inhibitor, partial curve]	–
CN1C(=O)C2(CCN(C(=O)c3ccc(S(N)(=O)=O)cc3)CC2)c2ccccc21	inactive	–
COC(=O)C1CN(C(=O)COc2ccc(Cl)cc2Cl)c2ccccc2O1 (stereo not drawn)	inconclusive: 100 µM [inhibitor, partial curve, poor fit]	–
CC(c1ccc(F)cc1)n1c(-c2ccc3ccccc3n2)n[nH]c1=S (stereo not drawn)	inconclusive: 50.1 µM [inhibitor, partial curve, poor fit]	–
O=C(Nc1ccc(F)c(Cl)c1)c1cccc2ccccc12	inconclusive: 31.6 µM [inhibitor, partial curve, poor fit]	–
O=C(O)c1ccc(-n2[nH]c3c(c2=O)CCCC3)cc1	inconclusive: 50.1 µM [inhibitor, partial curve, poor fit]	–
CCOc1ccccc1C(=O)NCc1nnc2ccc(-c3ccc(C)c(C)c3)nn12	inactive	–
CC1CC(C)CN(CCOc2ccc(Cl)cc2Cl)C1 (stereo not drawn)	inconclusive: 31.6 µM [inhibitor, partial curve, poor fit]	–
COC(=O)[C@@H](N)CS	inconclusive: 15.8 µM [inhibitor, partial curve]	–
Cc1c(S(=O)(=O)c2ccccn2)c(N)n(Cc2cccc(Cl)c2)c1C	inconclusive: 39.8 µM [inhibitor, single point]	–
CCn1c(N2CCN(Cc3ccc(Cl)cc3Cl)CC2)nc2c1c(=O)[nH]c(=O)n2C	inactive	–
O=C(NC1CC1)c1cccc(NS(=O)(=O)c2ccc(Cl)cc2C(F)(F)F)c1	inactive	–
CCCCCCCCS(=O)c1sc2nc(C)cc(C)c2c1N (stereo not drawn)	inconclusive: 28.2 µM [inhibitor, full curve, poor fit]	–
Cc1cc2ncn(CC(O)COc3cccc(C(=O)O)c3)c2cc1C (stereo not drawn)	inconclusive: 89.1 µM [inhibitor, partial curve, poor fit]	–
O=C(OCc1cn([C@@H]2CN(Cc3cccs3)[C@@H](c3ccc(Cl)cc3)C[C@H]2O)nn1)c1ccccc1	inconclusive: 50.1 µM [inhibitor, partial curve]	–
Cc1cn([C@H]2C[C@H](N=[N+]=[N-])[C@@H](CO)O2)c(=O)[nH]c1=O	inconclusive: 28.2 µM [inhibitor, single point]	–

Compound	Potency	activity change, negative = inhibition
O=C(CS(=O)(=O)c1ccccc1)c1ccc2c(c1)OCCO2	inactive	–
COc1ccccc1OCC(=O)N1CCCC(Nc2ccc(C)c(C)c2)C1 (stereo not drawn)	inactive	–
O=C(N/N=C/c1ccccc1Br)c1ccc(Br)s1	inactive	–
O=C(c1cc(=O)c2ccccc2o1)N1CCN(c2cccc(Cl)c2)CC1	inconclusive: 112 µM [inhibitor, partial curve, poor fit]	–
CC(=O)Nc1ccc(C2(C(=O)NCc3ccc(F)cc3F)CCCCC2)cc1	inactive	–
Cc1cccc(C(=O)Nc2ccc3nc(SCc4ccc(I)cc4)sc3c2)c1	inconclusive: 31.6 µM [inhibitor, partial curve, poor fit]	–
COc1ccc(Nc2nc(-c3c(C)nc4ncccn34)cs2)cc1	inconclusive: 50.1 µM [inhibitor, partial curve, poor fit]	–
COc1ccc(CCC(=O)N2CCCC(c3nc(C)ncc3-c3cccc(C)c3)C2)cc1OC (stereo not drawn)	inactive	–
CCCCSCCCNC(=O)Nc1cccc(OC)c1	inactive	–
O=C(Cc1cccn1-c1ccc(F)cc1)NCCN1CCc2ccccc2C1	inactive	–
O=C(OCc1cn([C@@H]2CN(CC3CCCCC3)[C@@H](c3ccc(Cl)cc3)C[C@H]2O)nn1)c1ccccc1	inconclusive: 31.6 µM [inhibitor, single point]	–
Cc1cccc(-c2noc([C@@H]3C[C@@H](O)CN3Cc3cccc(C#N)c3)n2)c1	inconclusive: 79.4 µM [inhibitor, full curve, poor fit]	–
CN1CCN(C(=S)Nc2cc(S(=O)(=O)N3CCOCC3)ccc2Cl)CC1	inactive	–
Cc1cc(C)n(CCc2nnc(Nc3ccn(Cc4ccccc4Cl)n3)s2)n1	inconclusive: 44.7 µM [inhibitor, partial curve, poor fit]	–
O=C(NCCc1c[nH]c2ccccc12)C1CCN(S(=O)(=O)c2ccccc2)CC1	inactive	–
Cc1cc(/C=C/C(=O)c2cccc(Br)c2)cc(C)c1O	inconclusive: 31.6 µM [inhibitor, partial curve, poor fit]	–
S=c1nc[nH]c2c1[nH]c1ccc(Cl)cc12	inconclusive: 5.01 µM [inhibitor, full curve, poor fit]	–
Cc1ccc(S(=O)(=O)Nc2cc3c(C(=O)OCc4ccccc4)c(C)oc3c3ccccc23)cc1	–	inconclusive: -50.6% [inhibitor]
COCC1CN(S(=O)(=O)c2cc(F)ccc2OC)CC12CCNCC2 (stereo not drawn)	inactive	–
O=C(COc1ccc(-c2ccccc2)cc1)c1ccc(F)cc1	inactive	–
C=CCn1c(SCC(=O)NCC)nc2sc3c(c2c1=O)CCC3	inconclusive: 50.1 µM [inhibitor, partial curve, poor fit]	–
O=C(Nc1ccc(Cl)cc1)c1nc2c(o1)CCN(Cc1cccc(F)c1)CC2	inconclusive: 8.91 µM [inhibitor, full curve, poor fit]	–

Nothing new here: entries from further up.
Compound	Potency	activity change, negative = inhibition
COc1cccc(-c2nc(-c3cc4cc(OC)ccc4[nH]c3=O)no2)c1	inconclusive: 15.8 µM [inhibitor, full curve]	–
COc1ccc(C(C)(O)c2nc(-c3ccc(Cl)cc3)cs2)cc1 (stereo not drawn)	inconclusive: 44.7 µM [inhibitor, partial curve, poor fit]	–
CCSc1nc(N2CCCCC2)c2c3c(sc2n1)COC(C)(CC)C3 (stereo not drawn)	inconclusive: 39.8 µM [inhibitor, partial curve, poor fit]	–
COc1ccc2oc(C(=O)OCC(=O)Nc3cc(S(=O)(=O)N4CCOCC4)ccc3C)c(C)c2c1	inconclusive: 50.1 µM [inhibitor, partial curve, poor fit]	–
COc1ccc(NC(=O)c2oc3ccccc3c2NC(=O)c2cc(OC)c(OC)c(OC)c2)cc1	inactive	–
